Results: PubChem BioAssay AID1487 (National Center for Advancing Translational Sciences (NCATS), 2009)
Several values for one entry are separate records, joined by “and”; a condition that tells them apart may be missing. Equal entries are not always repeated. The list shows a part of the results. These are further read-outs of the screen, such as a control signal, another cell line or another target. No call is given for them. Compounds called inactive in the main read-out are mostly missing here. Potencies come from curve fits of mixed quality, noted in brackets.

Experiment: qHTS Assay for Modulators of Lamin A Splicing
Conditions: HeLa LMNA splicing GFP/RFP minigene ratio, 48 h
How it was run: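 Read-out is the ratio of GFP to DsRed2 object intensity, acquired by 488 nm laser-scanning cytometry on HeLa lamin A-EGFP minigene reporter cells. Compound incubation 48 hrs at 37 °C in Opti-MEM with 2% FBS; DMSO 0.5% final.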

[1] = measured here: GFP splicing reporter channel
[2] = measured here: RFP viability control channel

SMILES	AC50 [1]	AC50 [2]
Cc1cc(C)cc(N2C(=O)CS(=O)(=O)C23C(=O)N(C)c2ccccc23)c1 (configuration not stated)	0.0355 µM [falling, full curve, poor fit]	0.0224 µM [falling, full curve]
O=C(Nc1ccccc1N1CCCCC1)c1ccc2nccnc2c1	–	35.5 µM [rising, single point]
Cc1nc(-c2ccc(S(=O)(=O)N(C)Cc3ccccc3)cc2)co1	35.5 µM [falling, single point]	–
COc1ccc(-c2c/c(=N\c3nc(-c4ccccc4)c(C)s3)c3ccccc3o2)cc1O	–	4.47 µM [rising, full curve]
O=C(CSCc1ccc(Cl)cc1)N1CCN(Cc2ccc3c(c2)OCO3)CC1	14.1 µM [rising, single point]	15.8 µM [rising, partial curve]
CCn1c(C)nc2cc(C(=O)NNC(=S)Nc3ccc(OC)cc3)ccc21	6.31 µM [rising, partial curve]	–
COC(=O)c1sccc1NC(=O)CSc1ccccc1N	–	20 µM [rising, single point]
COc1ccc(CNc2oc(-c3cccc4ccccc34)nc2C#N)cc1	35.5 µM [rising, single point]	35.5 µM [rising, single point]
O=C(NC1CCCCC1)c1cccc(COCC(F)(F)F)c1	31.6 µM [rising, single point]	35.5 µM [rising, single point]
CCCNC(=O)COC(=O)/C=C/c1ccc2c(c1)OCO2	20 µM [rising, single point]	–
Cc1ccc(-c2[nH]nc(N)c2N=Nc2cccc(Cl)c2C)cc1	25.1 µM [falling, single point]	35.5 µM [falling, single point]
CCCOc1cccc(C(=O)NC(=S)Nc2ccccc2)c1	–	35.5 µM [rising, single point]
CC(C)(C)C1CCc2c(sc(NC(=O)CSc3ncn[nH]3)c2C#N)C1 (configuration not stated)	–	12.6 µM [rising, single point]
CC(C)c1ccc(NC(=O)C2Cc3ccccc3N2C(=O)c2ccccc2)cc1 (configuration not stated)	3.98 µM [rising, partial curve, poor fit]	5.01 µM [rising, single point]
Cc1cc(C)cc(-n2c(C)cc(/C=C3\C(=N)N4N=C(CC(C)C)SC4=NC3=O)c2C)c1	25.1 µM [rising, single point]	35.5 µM [rising, single point]
Cc1cc(C(=O)Nc2cccc3cccnc23)ccc1[N+](=O)[O-]	–	0.126 µM [falling, full curve, poor fit]
COCCn1c(-c2ccc(OC)cc2)cnc1SCC(=O)Nc1cc(C)on1	–	12.6 µM [rising, single point]
CCN(CC)c1ccc(C=Nc2ccc(C)cc2)c(O)c1	14.1 µM [rising, single point]	12.6 µM [rising, single point]
CC(=O)Nc1cccc(C(=O)O)n1	1.26 µM [falling, single point]	0.891 µM [falling, partial curve]
c1ccc(C[n+]2cccc(-c3ccccc3)c2)cc1	12.6 µM [rising, partial curve]	14.1 µM [rising, partial curve]
C#C[C@]1(O)CC[C@@H]2[C@H]3CCc4cc(OC)ccc4[C@@H]3CC[C@@]21C	1.41 µM [falling, full curve, poor fit]	1.41 µM [falling, partial curve]
Cc1ncsc1CCOC(=O)c1ccc(N2CCOCC2)c([N+](=O)[O-])c1	0.00355 µM [rising, full curve, poor fit]	–
Cc1cccc(CN2CCN(C(=O)CCl)CC2)c1	35.5 µM [falling, single point]	–
COc1ccc(Br)cc1CNC(=O)c1cnc2sc(N3CCCCCC3)nn2c1=O	17.8 µM [falling, partial curve, poor fit]	0.282 µM [falling, full curve, poor fit]
COc1ccc(S(=O)(=O)Nc2cc3c(C(C)=O)c(C)oc3c3ccccc23)cc1	–	10 µM [falling, partial curve, poor fit]
CCSc1nc2c([nH]c3ccccc32)c(=O)n1-c1cccc(OC)c1	35.5 µM [falling, single point]	35.5 µM [falling, single point]
COc1cccc(NC(=O)Cn2c(=O)ccc3cc(S(=O)(=O)N4CCC(C)CC4)ccc32)c1	0.316 µM [rising, full curve]	–

Three compounds drawn at random from those above, as already listed:
SMILES	AC50 [1]	AC50 [2]
COc1ccc(CNc2oc(-c3cccc4ccccc34)nc2C#N)cc1	35.5 µM [rising, single point]	35.5 µM [rising, single point]
COc1ccc(-c2c/c(=N\c3nc(-c4ccccc4)c(C)s3)c3ccccc3o2)cc1O	–	4.47 µM [rising, full curve]
CC(=O)Nc1cccc(C(=O)O)n1	1.26 µM [falling, single point]	0.891 µM [falling, partial curve]

(further entries)

SMILES	AC50 [1]	AC50 [2]
NC(=O)C1CCN(c2ccc(C(F)(F)F)cn2)CC1	0.0891 µM [falling, full curve, poor fit]	0.1 µM [falling, full curve, poor fit]
COc1ccc(-c2nc3ccccc3n2Cc2ccc(C)cc2)cc1	–	11.2 µM [rising, single point]
COc1ccc(NC(=O)c2cc3nc(-c4ccccc4)cc(C)n3n2)cc1OC	12.6 µM [falling, partial curve, poor fit]	12.6 µM [falling, partial curve, poor fit]
C=CCOc1c(Br)cc(CNc2ccc3[nH]c(=O)[nH]c3c2)cc1OCC	0.126 µM [falling, full curve, poor fit]	0.1 µM [falling, full curve, poor fit]
Cn1nccc1C(=O)Nc1ccn(C23CC4CC(CC(C4)C2)C3)n1	–	7.08 µM [rising, partial curve]
O=C(Nc1ccc(Cl)c(Cl)c1)c1ccc(Cn2cc(Cl)cn2)cc1	35.5 µM [falling, partial curve]	35.5 µM [falling, partial curve]
CCCCc1nn2c(=O)cc(COC(=O)c3ccco3)nc2s1	0.00501 µM [falling, full curve, poor fit]	–
COC(=O)c1c(-c2cc(C)ccc2C)csc1NC(=O)C1CC=CCC1C(=O)O (configuration not stated)	22.4 µM [falling, partial curve, poor fit]	–
Cc1ccc(OCC(=O)N/N=C/c2ccc3c(c2)OCO3)cc1C	31.6 µM [rising, single point]	–
CCCCC(=O)Nc1nnc(SCc2cc(=O)n3cc(C)ccc3n2)s1	0.562 µM [rising, full curve, poor fit]	–
O=C(CNC(=O)c1ccco1)OCC(=O)c1ccc2ccccc2c1	–	0.0112 µM [falling, full curve, poor fit]
NC(=O)NC(=O)COC(=O)c1ccc(Cl)c(S(=O)(=O)N(Cc2ccccc2)c2ccc(Cl)cc2)c1	35.5 µM [falling, single point]	35.5 µM [falling, single point]
Cc1ccc(CNC(=O)CSc2nc(=O)n(Cc3ccco3)c3c2CCC3)cc1	3.55 µM [rising, partial curve, poor fit]	2.82 µM [rising, partial curve]
CC(=O)Oc1ccc(/C=N/NS(=O)(=O)c2ccccc2)cc1	1.58 µM [falling, full curve, poor fit]	–
Cc1ccc(NC(=O)CSc2nc3nc(C)cc(C)c3c(=O)[nH]2)cc1	–	25.1 µM [rising, single point]
Cc1ccc(-n2[nH]c(C)c(CCC#N)c2=O)cc1	0.00891 µM [falling, full curve, poor fit]	–
Cc1cccc2c(=O)cc(C)n(Cc3ccccc3)c12	15.8 µM [rising, partial curve, poor fit]	7.94 µM [rising, partial curve, poor fit]
CC(C)N1CCN(c2ccc(OC[C@@H]3CO[C@@](Cn4cncn4)(c4ccc(Cl)cc4Cl)O3)cc2)CC1	0.316 µM [falling, full curve, poor fit]	0.00794 µM [falling, full curve, poor fit]
CC(C)(C)NCC(O)c1ccc(O)c(CO)c1 (configuration not stated)	31.6 µM [falling, single point] and 6.31 µM [rising, partial curve, poor fit]	–
COc1ccc(NC(=O)c2ccco2)cc1NC(=O)c1ccc(Br)o1	31.6 µM [rising, single point]	35.5 µM [rising, single point]
CCC(C)n1c(-c2cc(OC)c(OC)c(OC)c2)nc2nc3ccccc3nc21 (configuration not stated)	–	22.4 µM [rising, single point]
Nc1ccc(C(=O)n2c3ccccc3c3ccccc32)cc1	1.41 µM [falling, partial curve]	–
CC1CCN(c2ccc(-c3cccc(NS(=O)(=O)c4cccs4)c3)nn2)CC1	0.447 µM [falling, full curve, poor fit]	0.631 µM [falling, full curve, poor fit]
CCc1ccc(S(=O)(=O)/N=C2/C=C(Sc3ncn[nH]3)C(=O)c3ccccc32)cc1	3.98 µM [falling, full curve]	4.47 µM [falling, full curve]
CC(=O)N1CCC(C(=O)Nc2ccccc2)(N(Cc2ccccc2)C(=O)c2cccnc2)CC1	2 µM [rising, single point]	–
COc1cc(CNc2nnnn2C)ccc1OCc1c(F)cccc1Cl	0.0447 µM [rising, full curve, poor fit]	–
